Laboratory results as given in patent US20250019361A1, “(3-QUINOLYL)-QUINAZOLINE” (BASF SE, priority 2021, published 2025).
Some results were stated once for a whole list of compounds, not compound by compound.

Assays:
Sclerotinia sclerotiorum [1] = test: Green house: preventative fungicidal control of white mold on oilseed rape caused by Sclerotinia sclerotiorum SCLESC P1 OSR; type: in vivo; details: 100 g/ha, assessed after 14 days, untreated plants 80% infected
Sclerotinia sclerotiorum [2] = test: Green house: preventative fungicidal control of white mold on soybeans caused by Sclerotinia sclerotiorum (SCLESC P1); details: 250 ppm, assessed after 6 days, untreated plants 80% infected
Botrytis cinerea [3] = test: Green house: preventative fungicidal control of Botrytis cinerea on leaves of green pepper; type: in vivo; details: 250 ppm, sprayed one day before inoculation, assessed after 5 days, untreated plants 80% infected
Pyricularia oryzae = type: cell-based; details: 31 ppm
Fusarium culmorum = test: Microtest: activity against Fusarium culmorum in the microtiterplate test; type: cell-based
[4] = test system: Corynespora cassiicola G413A mutant; test: Microtest: activity against Corynespora cassiicola G413A mutant in the microtiterplate test; type: cell-based; details: 31 ppm
Botrytis cinerea [5] = test: Microtest: activity against the grey mold Botrytis cinerea in the microtiterplate test; type: cell-based; details: 31 ppm
Cercospora zeae maydis = test: Microtest: activity against Cercospora zeae maydis in the microtiterplate test; type: cell-based; details: 31 ppm
Septoria tritici = test: Microtest: activity against leaf blotch on wheat caused by Septoria tritici; type: cell-based; details: 31 ppm
Description: The active compounds were formulated separately as a stock solution having a concentration of 10000 ppm in dimethyl sulfoxide.
The stock solutions were mixed according to the ratio, pipetted onto a micro titer plate (MTP) and diluted with water to the stated concentrations.
A spore suspension of Septoria tritici in an aqueous biomalt or yeast-bactopeptone-glycerine or DOB solution was then added.
The measured parameters were compared to the growth of the active compound-free control variant (100%) and the fungus-free blank value to determine the relative growth in % of the pathogens in the respective active compounds.

Cercospora beticula = test: Microtest: activity against Cercospora beticula in the microtiterplate test; type: cell-based; details: 31 ppm
Cercospora sojina = test: Microtest: activity against Cercospora sojina in the microtiterplate test; type: cell-based; details: 31 ppm

| Compound | growth of the pathogen (fungal attack on the leaves visually assessed as % diseased leaf area) (Sclerotinia sclerotiorum [1]) | growth of the pathogen (fungal attack on the leaves visually assessed as % diseased leaf area) (Sclerotinia sclerotiorum [2]) | growth of the pathogen (fungal attack on the leaves visually assessed as % diseased leaf area) (Botrytis cinerea [3]) | growth of the pathogen (relative growth in %, control 100%) (Pyricularia oryzae) | growth of the pathogen (relative growth in %, control 100%) (Fusarium culmorum; 8 ppm) | growth of the pathogen (relative growth in %, control 100%) (Fusarium culmorum; 31 ppm) | growth of the pathogen (relative growth in %, control 100%) [4] | growth of the pathogen (relative growth in %, control 100%) (Botrytis cinerea [5]) | growth of the pathogen (relative growth in %, control 100%) (Cercospora zeae maydis) | growth of the pathogen (relative growth in %, control 100%) (Septoria tritici) | growth of the pathogen (relative growth in %, control 100%) (Cercospora beticula) | growth of the pathogen (relative growth in %, control 100%) (Cercospora sojina) |
| --- | --- | --- | --- | --- | --- | --- | --- | --- | --- | --- | --- | --- |
| CC1(C)N=C(c2cnc3c(F)cccc3c2)c2ccccc2N1C#N [Ex-8] | at most 12% | at most 15% | at most 13% | up to 20% | up to 1% | up to 20% | up to 17% | up to 14% | up to 17% | – | – | – |
| CC(=O)N1c2c(F)cccc2C(c2cnc3c(F)cccc3c2)=NC1(C)C [Ex-17] | – | – | – | up to 20% | – | up to 20% | up to 17% | up to 14% | – | up to 18% | up to 20% | up to 12% |
| CC(C)C1(C)N=C(c2cnc3c(F)cccc3c2)c2ccccc2N1C#N (racemic) [Ex-65] | – | at most 15% | at most 13% | – | – | up to 20% | up to 17% | up to 14% | – | – | – | – |
| C=C(C)CN1c2ccccc2C(c2cnc3c(F)cccc3c2)=NC1(C)C [Ex-60] | – | at most 15% | at most 13% | – | – | up to 20% | up to 17% | up to 14% | – | up to 18% | – | – |
| CC(C)CN1c2c(F)cccc2C(c2cnc3c(F)cccc3c2)=NC1(C)C [Ex-15] | at most 12% | – | at most 13% | up to 20% | – | – | up to 17% | up to 14% | – | – | – | – |
| CCN1c2c(F)cccc2C(c2cnc3c(F)cccc3c2)=NC1(C)C [Ex-10] | at most 12% | – | at most 13% | up to 20% | up to 1% | up to 20% | up to 17% | up to 14% | – | up to 18% | up to 20% | up to 12% |
| CCCCN1c2c(F)cccc2C(c2cnc3c(F)cccc3c2)=NC1(C)C [Ex-9] | at most 12% | – | at most 13% | up to 20% | – | – | – | up to 14% | – | up to 18% | – | up to 12% |
| Cc1cccc2cc(C3=NC(C)(C)N(C)c4c(Cl)cccc43)cnc12 [Ex-45] | – | at most 15% | at most 13% | – | – | up to 20% | up to 17% | up to 14% | – | up to 18% | – | – |
| CN1c2c(F)cccc2C(c2cnc3c(F)c(F)ccc3c2)=NC1(C)C [Ex-55] | – | at most 15% | at most 13% | – | – | up to 20% | up to 17% | up to 14% | – | up to 18% | – | – |
| CN1c2c(F)cccc2C(c2cnc3c(Cl)cccc3c2)=NC1(C)C [Ex-31] | – | at most 15% | at most 13% | – | – | up to 20% | up to 17% | up to 14% | – | up to 18% | – | – |
| CC1(C)N=C(c2cnc3c(F)cccc3c2)c2cccc(Cl)c2N1C#N [Ex-23] | – | – | at most 13% | up to 20% | – | up to 20% | up to 17% | up to 14% | – | up to 18% | – | – |
| CN1c2c(Cl)cccc2C(c2cnc3c(Cl)cccc3c2)=NC1(C)C [Ex-39] | – | at most 15% | at most 13% | – | – | up to 20% | up to 17% | up to 14% | – | up to 18% | – | – |
| CC1(C)N=C(c2cnc3c(F)cccc3c2)c2cccc(Cl)c2N1 [Ex-12] | at most 12% | – | at most 13% | – | – | up to 20% | up to 17% | up to 14% | – | up to 18% | up to 20% | up to 12% |
| N#CN1c2ccccc2C(c2cnc3c(F)cccc3c2)=NC12CCCC2 [Ex-7] | at most 12% | – | at most 13% | up to 20% | up to 1% | up to 20% | up to 17% | up to 14% | – | up to 18% | – | – |
| CN1c2c(Cl)cccc2C(c2cnc3ccccc3c2)=NC1(C)C [Ex-28] | – | at most 15% | at most 13% | – | – | up to 20% | up to 17% | up to 14% | – | up to 18% | – | – |
| CCCC(=O)N1c2c(F)cccc2C(c2cnc3c(F)cccc3c2)=NC1(C)C [Ex-19] | – | – | – | up to 20% | – | up to 20% | up to 17% | up to 14% | – | up to 18% | up to 20% | up to 12% |
| Cc1cccc2cc(C3=NC(C)(C)N(C#N)c4ccccc43)cnc12 [Ex-43] | – | at most 15% | at most 13% | – | – | up to 20% | up to 17% | up to 14% | – | – | – | – |
| CC1(C)N=C(c2cnc3c(F)c(F)ccc3c2)c2ccccc2N1C#N [Ex-47] | – | at most 15% | at most 13% | – | – | up to 20% | up to 17% | up to 14% | – | – | – | – |
| Cc1cccc2cc(C3=NC(C)(C)N(C)c4c(F)cccc43)cnc12 [Ex-42] | – | at most 15% | at most 13% | – | – | up to 20% | up to 17% | up to 14% | – | up to 18% | – | – |
